Common to all, as to assay: affinity purification with mass spectrometry; lysates of A549 and H460-BUB1b cells (2 × 10^7, IP lysis buffer), 2.5 μg anti-BUB1b or anti-IgG overnight at 4 °C, protein A/G beads 6 h at 4 °C, washed three times with PBS, LC/MS of the immunoprecipitated complexes
Experiment [1] has as its target BUB1 mitotic checkpoint serine/threonine kinase B (BUB1b), endogenous in A549 cells (human (endogenous in A549)) (UniProt O60566).
Experiment [2] concerns the target BUB1b overexpressed by lentivirus in H460 cells (H460-BUB1b) (UniProt O60566).
Experiment [3] concerns the target BUB1 mitotic checkpoint serine/threonine kinase B (BUB1b), endogenous in A549 cells (human (endogenous in A549)) (UniProt O60566). The source holds these as a separate data set.
In experiment [4] the target is BUB1b overexpressed by lentivirus in H460 cells (H460-BUB1b) (UniProt O60566). The source holds these as a separate data set.

Sequences of proteins named here, by UniProt entry; tags and fusion partners are left off.
UniProt O60566: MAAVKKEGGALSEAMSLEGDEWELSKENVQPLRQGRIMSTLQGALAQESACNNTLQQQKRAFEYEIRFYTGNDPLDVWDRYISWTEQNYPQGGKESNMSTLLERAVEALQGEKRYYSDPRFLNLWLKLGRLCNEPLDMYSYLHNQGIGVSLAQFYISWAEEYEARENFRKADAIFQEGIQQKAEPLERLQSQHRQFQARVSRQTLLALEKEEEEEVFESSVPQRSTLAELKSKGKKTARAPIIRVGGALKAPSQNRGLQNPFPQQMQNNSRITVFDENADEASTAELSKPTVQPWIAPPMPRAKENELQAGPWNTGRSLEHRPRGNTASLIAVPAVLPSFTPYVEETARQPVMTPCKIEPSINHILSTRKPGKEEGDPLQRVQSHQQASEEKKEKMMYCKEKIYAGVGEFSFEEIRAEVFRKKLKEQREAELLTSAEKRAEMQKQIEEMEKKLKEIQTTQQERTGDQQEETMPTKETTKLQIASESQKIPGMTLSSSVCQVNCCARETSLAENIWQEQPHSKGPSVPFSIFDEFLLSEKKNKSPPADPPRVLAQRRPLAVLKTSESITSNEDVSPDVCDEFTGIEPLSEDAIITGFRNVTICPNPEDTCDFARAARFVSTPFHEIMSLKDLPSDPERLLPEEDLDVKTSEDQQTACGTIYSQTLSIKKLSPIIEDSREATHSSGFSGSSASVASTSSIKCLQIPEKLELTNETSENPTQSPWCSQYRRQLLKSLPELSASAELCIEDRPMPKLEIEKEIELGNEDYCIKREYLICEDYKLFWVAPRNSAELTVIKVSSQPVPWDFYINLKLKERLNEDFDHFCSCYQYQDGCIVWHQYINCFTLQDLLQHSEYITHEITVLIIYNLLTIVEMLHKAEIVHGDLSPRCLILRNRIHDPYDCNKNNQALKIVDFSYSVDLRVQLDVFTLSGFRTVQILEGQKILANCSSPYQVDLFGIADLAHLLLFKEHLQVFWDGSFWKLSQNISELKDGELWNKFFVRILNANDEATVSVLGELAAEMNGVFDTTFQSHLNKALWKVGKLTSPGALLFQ
UniProt Q5T2D3: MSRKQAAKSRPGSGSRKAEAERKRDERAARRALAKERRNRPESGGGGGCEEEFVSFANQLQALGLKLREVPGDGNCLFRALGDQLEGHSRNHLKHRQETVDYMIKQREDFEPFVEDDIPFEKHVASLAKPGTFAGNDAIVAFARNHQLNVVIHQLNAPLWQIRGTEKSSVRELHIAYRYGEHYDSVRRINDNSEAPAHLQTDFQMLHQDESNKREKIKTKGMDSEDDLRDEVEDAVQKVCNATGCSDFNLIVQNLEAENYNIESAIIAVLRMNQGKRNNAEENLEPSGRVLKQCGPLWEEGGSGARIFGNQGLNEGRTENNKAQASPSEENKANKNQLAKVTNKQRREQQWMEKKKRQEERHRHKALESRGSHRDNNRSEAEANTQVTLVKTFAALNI

Read-outs that look alike come from different tables or passages of the source. These are yes or no findings as the source states them, for the method shown. Binding seen in cells or lysates may run through a third protein. These calls come from enrichment with a bait or labelling near it, and not all partners need be listed.

With “OTUD3 (from UniProt Q5T2D3 1-398) (enzyme)”, the binding entry in experiment [1] and in experiment [2] was “binds” each time.

B1: NRF2 (protein, UniProt Q16236 1-605)
chain: MMDLELPPPGLPSQQDMDLIDILWRQDIDLGVSREVFDFSQRRKEYELEKQKKLEKERQEQLQKEQEKAFFAQLQLDEETGEFLPIQPAQHIQSETSGSANYSQVAHIPKSDALYFDDCMQLLAQTFPFVDDNEVSSATFQSLVPDIPGHIESPVFIATNQAQSPETSVAQVAPVDLDGMQQDIEQVWEELLSIPELQCLNIENDKLVETTMVPSPEAKLTEVDNYHFYSSIPSMEKEVGNCSPHFLNAFEDSFSSILSTEDPNQLTVNSLNSDATVNTDFGDEFYSAFIAEPSISNSMPSPATLSHSLSELLNGPIDVSDLSLCKAFNQNHPESTAEFNDSDSGISLNTSPSVASPEHSVESSSYGDTLLGLSDSEVEELDSAPGSVKQNGPKTPVHSSGDMVQPLSPSQGQSTHVHDAQCENTPEKELPVSPGHRKTPFTKDKHSSRLEAHLTRDELRAKALHIPFPVEKIINLPVVDFNEMMSKEQFNEAQLALIRDIRRRGKNKVAAQNCRKRKLENIVELEQDLDHLKDEKEKLLKEKGENDKSLHLLKKQLSTLYLEVFSMLRDEDGKPYSPSEYSLQQTRDGNVFLVPKSKKPDVKKN
On to B1, for which the binding entry in experiment [3] and in experiment [4] was “binds” throughout.

These data come from PMC11266579.
